Reference: PubChem BioAssay AID540256 (National Center for Advancing Translational Sciences (NCATS), 2011)
About 3,700 (1.2%) of roughly 300,000 compounds were called active. This list was built around the results that the source calls inconclusive (neither active nor inactive); the mix of calls is not that of the screen. Calls follow the shape of the full dose curve; tested in HEK293 cells. Potencies beside an inconclusive call are fits to weak or partial responses and may not hold up.

test: qHTS for Inhibitors of binding or entry into cells for Lassa Virus; details: Lassa virus pseudotype entry inhibition, cell reporter; series mostly up to 37.9 µM; also: nearly all actives have a fitted effect of over 50% in size
Potency is read from the fitted curve at half-maximal effect.

Row | SMILES | Potency
1 | COC(=O)CCC/C=C1/SCC(NC(=O)c2ccccc2)C1=O (stereo not drawn) | inactive
2 | CCN1CCN(Cc2cccc(Oc3ccc(Cl)cc3)c2)CC1 | inconclusive: 29.1 µM [inhibitor, single point]
3 | COc1ccc(-c2csc(-c3cccs3)n2)cc1OC | inconclusive: 3.55 µM [activator, partial curve, poor fit]
4 | Clc1ccc(CON/C=N/c2ncnc3sccc23)c(Cl)c1 | inconclusive: 35.5 µM [inhibitor, single point]
5 | Nc1ccc(C(=O)N2CCN(S(=O)(=O)c3ccc(Cl)cc3)CC2)cc1[N+](=O)[O-] | inconclusive: 10 µM [inhibitor, partial curve, poor fit]
6 | Cc1no[n+]([O-])c1COc1ccccc1/C=N/n1nnnc1N | inconclusive: 3.16 µM [inhibitor, partial curve, poor fit]
7 | O=C(NNC(=O)c1cc(Br)c(Br)s1)c1csc(N2CCOCC2)n1 | inactive
8 | O=C(Nc1ccccc1O)c1cccc(S(=O)(=O)N2CCOCC2)c1 | inactive
9 | O=C(CN(Cc1ccccc1)C(=O)CCC(=O)Nc1ccccn1)NCCc1ccccc1 | inactive
10 | COc1ccc(Cn2c(CO)cnc2SCc2cccc(C)c2)cc1 | inactive
11 | O=C(N/N=C\c1ccc(Cl)s1)c1ccc(Cn2cccn2)o1 | inconclusive: 20 µM [activator, single point]
12 | CCn1nc(NS(=O)(=O)c2ccc(NC(C)=O)cc2)c2cc3cc(C)ccc3nc21 | inconclusive: 35.5 µM [activator, single point]
13 | Cc1ccc2c(c1)c(=O)c(Br)c(C)n2Cc1ccccc1 | inactive
14 | O=C(COC(=O)c1ccc(O)cc1)NCC1COc2ccccc2O1 (stereo not drawn) | inconclusive: 35.5 µM [inhibitor, single point]
15 | O=C(Nc1ccccn1)c1onc2c1CCCC2 | active: 7.31 µM
16 | Cc1nc(C#N)c(NCc2ccc3c(c2)OCO3)o1 | inactive
17 | O=C(COC(=O)/C=C/c1ccccc1)NNC(=O)c1ccc([N+](=O)[O-])cc1 | inactive
18 | Cc1ccc2c(c1)Oc1ccc(NC(=O)CCl)cc1C(=O)N2 | inconclusive: 6.31 µM [inhibitor, partial curve, poor fit]
19 | O=C(O)c1cccc(CN2C(=O)c3ccccc3C2=O)c1 | inconclusive: 3.55 µM [activator, partial curve, poor fit]
20 | CCC(C(=O)N1CCN(C(=O)c2ccco2)CC1)c1ccccc1 (stereo not drawn) | inactive
21 | CCCn1c(=O)c2[nH]c(C3CCCC3)nc2n(CCCOC(=O)c2ccc(S(=O)(=O)F)cc2)c1=O | inconclusive: 3.26 µM [inhibitor, full curve]
22 | COc1ccc(-c2cc(C(=O)Nc3cc(Cl)ccc3OC)no2)cc1 | inconclusive: 2.82 µM [activator, partial curve]

Row | SMILES | Potency
23 | O=C(COc1cccc2c1CCN(Cc1ccccc1)C2=O)NCc1ccco1 | inactive
24 | Clc1ccc(-c2nc3n(n2)Cc2ccccc2-3)cc1 | inconclusive: 29.1 µM [inhibitor, single point]
25 | O=C(CCCOc1ccc(Cl)cc1Cl)N/N=C/c1ccccc1 | inconclusive: 8.91 µM [inhibitor, partial curve]
26 | Cc1ccc(NC(=O)c2nnn(CC(=O)Nc3ccc(C)c(Cl)c3)c2N)c(C)c1 | inactive
27 | Cc1cc(Nc2ccc3c(c2)OCCO3)c2cccc(C)c2n1 | inconclusive: 11.6 µM [inhibitor, single point]
28 | Cc1ccc2nc(/N=C(\N)NC(=O)NC3CCCCC3)nc(C)c2c1 | inconclusive: 14.1 µM [inhibitor, partial curve, poor fit]
29 | Cc1c(C(=O)OCC(C)C)[nH]c2c1C(=O)CC(c1cccs1)C2 (stereo not drawn) | inconclusive: 2.06 µM [inhibitor, partial curve, poor fit]
30 | CCCCNC(=O)COn1nnc2ccc(S(=O)(=O)N3CCOCC3)cc21 | inconclusive: 3.98 µM [inhibitor, partial curve, poor fit]
31 | Cc1cc2nc(-c3ccc(SCc4ccc(C(=O)O)cc4)nc3)[nH]c2cc1C | inconclusive: 12.6 µM [inhibitor, partial curve, poor fit]
32 | COc1cccc(-c2nc(S(=O)(=O)c3ccccc3)c(N3CCC(C)CC3)o2)c1 | inconclusive: 8.91 µM [inhibitor, partial curve, poor fit]
33 | CSc1ccccc1OCc1cc(C(=O)NCCN2CCCc3ccccc32)no1 | inconclusive: 35.5 µM [inhibitor, single point]
34 | COc1ccc(/C=C/C(=O)O)cc1S(=O)(=O)N1CCCC1 | inconclusive: 35.5 µM [activator, single point]
35 | Cc1ccc(C(=O)n2nc(C)c(S(=O)(=O)N3CCOCC3)c2C)cc1C | inconclusive: 31.6 µM [activator, single point]
36 | CC(C)Cc1ccc(CN2CCCC(NC(=O)c3ccnn3C)C2)cc1 (stereo not drawn) | inconclusive: 35.5 µM [inhibitor, single point]
37 | CCS(=O)(=O)c1c(Nc2cc(C)ccc2C)sc(C(=O)c2ccccc2)c1N | inconclusive: 35.5 µM [inhibitor, partial curve, poor fit]
38 | O=S(=O)(Cc1ccc(Cl)cc1Cl)c1ccc(Cl)cc1 | inconclusive: 0.562 µM [inhibitor, full curve, poor fit]
39 | COc1cccc(NC(=O)N(Cc2cc3cc(C)cc(C)c3[nH]c2=O)CC2COCCO2)c1 (stereo not drawn) | inactive
40 | NC(=O)c1nsc(C(=O)N(CC(=O)NCc2ccccc2)c2cccc(F)c2)c1N | inconclusive: 35.5 µM [inhibitor, single point]
41 | Cc1cc(C)c2nc(C)cc(Nc3ccc(C(=O)N4CCOCC4)cc3)c2c1 | inconclusive: 1.26 µM [inhibitor, partial curve, poor fit]
42 | COc1ccc(CN2CC(=O)N(c3ccc(C)cc3C)C2=S)cc1OC | inconclusive: 35.5 µM [inhibitor, single point]
43 | COc1ccc(-c2nnc3n2N(C(C)=O)C(c2ccc(Cl)c(Cl)c2)=C(C(C)=O)S3)cc1 | inconclusive: 1.58 µM [inhibitor, partial curve, poor fit]

Given field by field: entries from further up.
Clc1ccc(-c2nc3n(n2)Cc2ccccc2-3)cc1
  Potency: inconclusive: 29.1 µM [inhibitor, single point]
O=C(CCCOc1ccc(Cl)cc1Cl)N/N=C/c1ccccc1
  Potency: inconclusive: 8.91 µM [inhibitor, partial curve]
Cc1ccc(NC(=O)c2nnn(CC(=O)Nc3ccc(C)c(Cl)c3)c2N)c(C)c1
  Potency: inactive
